PubChem BioAssay AID1259308 – NCATS | 2017

Screen: 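Genes whose loss raises luciferase production in HEK293 cells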 (primary screen)
System: human HEK293 embryonic kidney cells stably expressing firefly luciferase (HEK-CMV-Luc2-Hygro)
Reagents: single siRNA against human genes, 0.8 pmol siRNA per well
Duration: 72 h
Detection: 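Luciferase light (ONE-Glo) measured on one replicate plate set and viability (CellTiter-Glo) on the other, scaled to a negative control siRNA, with robust z-scores and luciferase per cell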
Reading the numbers: total luciferase, z-score and total luciferase, % of control: higher = more reporter protein produced; luciferase per cell, z-score: higher = more reporter output per viable cell; viable cells, % of control: higher = more viable cells
Call rule: 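An siRNA counts as active if its total luciferase robust z-score exceeds 3; genes with two or more such siRNAs out of three were retested with fresh siRNAs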
Calls: active = raised luciferase; inactive = no rise
This is one part, drawn at random, of about 59,000 deposited reagents. About 1,510 of them (2.6%) were called active. 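Calls use total luciferase alone and ignore viability, so some active siRNAs may act by altering cell number.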 Reagents against one gene are numbered here.

gene,reagent,"total luciferase, z-score","total luciferase, % of control","luciferase per cell, z-score","viable cells, % of control",Outcome
RBM25 (RNA binding motif protein 25),1,-1.69,48.3,-0.535,62.1,inactive
RBM25 (RNA binding motif protein 25),2,-0.603,69.9,-0.0856,79.9,inactive
RBM25 (RNA binding motif protein 25),3,-0.371,74.5,0.661,69.9,inactive
PLPPR3 (phospholipid phosphatase related 3),1,-0.0811,80.3,-0.533,103,inactive
PLPPR3 (phospholipid phosphatase related 3),2,0.466,91.2,0.888,80.6,inactive
PLPPR3 (phospholipid phosphatase related 3),3,0.156,85,0.217,89.7,inactive
"LUC7L2 (LUC7 like 2, pre-mRNA splicing factor)",1,0.927,100,0.0945,109,inactive
"LUC7L2 (LUC7 like 2, pre-mRNA splicing factor)",2,2.22,126,1.28,101,inactive
"LUC7L2 (LUC7 like 2, pre-mRNA splicing factor)",3,1.57,113,0.283,117,inactive
UFD1 (ubiquitin recognition factor in ER associated degradation 1),1,-0.72,67.6,-0.519,86.5,inactive
UFD1 (ubiquitin recognition factor in ER associated degradation 1),2,-0.123,79.4,-0.178,93,inactive
UFD1 (ubiquitin recognition factor in ER associated degradation 1),3,1.15,105,0.658,98.4,inactive
FKTN (fukutin),1,0.981,101,0.773,92.4,inactive
FKTN (fukutin),2,0.581,93.4,0.743,85.9,inactive
FKTN (fukutin),3,-1.15,59,-0.445,74.1,inactive
PCDHA7 (protocadherin alpha 7),1,0.562,93.1,0.476,91.8,inactive
PCDHA7 (protocadherin alpha 7),2,1.09,104,0.516,101,inactive
PCDHA7 (protocadherin alpha 7),3,1.69,116,0.266,120,inactive
CHST2 (carbohydrate sulfotransferase 2),1,-0.255,76.8,-0.16,89.5,inactive
CHST2 (carbohydrate sulfotransferase 2),2,-0.201,77.9,-0.728,105,inactive
CHST2 (carbohydrate sulfotransferase 2),3,-0.641,69.1,-0.739,93.8,inactive
CATIP (ciliogenesis associated TTC17 interacting protein),1,-0.231,77.3,0.489,75.9,inactive
CATIP (ciliogenesis associated TTC17 interacting protein),2,-0.569,70.6,-0.794,97.2,inactive
CATIP (ciliogenesis associated TTC17 interacting protein),3,0.31,88.1,-0.344,108,inactive
ATG12 (autophagy related 12),1,0.272,87.3,0.0133,97.2,inactive
ATG12 (autophagy related 12),2,0.581,93.4,0.696,86.9,inactive
ATG12 (autophagy related 12),3,-0.538,71.2,-0.113,82,inactive
FKBP9P1 (FKBP prolyl isomerase 9 pseudogene 1),1,-0.901,64,1.46,48.6,inactive
FKBP9P1 (FKBP prolyl isomerase 9 pseudogene 1),2,0.295,87.7,1.17,72,inactive
FKBP9P1 (FKBP prolyl isomerase 9 pseudogene 1),3,3.5,152,3.4,69.2,active
C1QL2 (complement C1q like 2),1,0.723,96.3,1.15,79.6,inactive
C1QL2 (complement C1q like 2),2,-2.87,24.8,-3.98,78.9,inactive
C1QL2 (complement C1q like 2),3,0.26,87,-0.407,108,inactive
SSX3 (SSX family member 3),1,1.64,114,1.77,80.2,inactive
SSX3 (SSX family member 3),2,-0.561,70.7,-0.791,97.3,inactive
SSX3 (SSX family member 3),3,-1.24,57.2,-1.15,86.7,inactive
MMP19 (matrix metallopeptidase 19),1,-0.266,76.6,0.21,81,inactive
MMP19 (matrix metallopeptidase 19),2,0.0352,82.6,-0.646,109,inactive
MMP19 (matrix metallopeptidase 19),3,-0.165,78.6,-0.601,103,inactive
CABP5 (calcium binding protein 5),1,-0.202,77.9,-0.0237,87.6,inactive
CABP5 (calcium binding protein 5),2,0.121,84.3,-0.074,96,inactive
CABP5 (calcium binding protein 5),3,-0.0672,80.6,-0.288,97.1,inactive
FOXC1 (forkhead box C1),1,-0.156,78.8,-0.568,102,inactive
FOXC1 (forkhead box C1),2,1.67,115,1.33,90.5,inactive
FOXC1 (forkhead box C1),3,-0.0417,81.1,-0.29,97.8,inactive
ZNF318 (zinc finger protein 318),1,-1.18,58.4,-1.41,94.6,inactive
ZNF318 (zinc finger protein 318),2,0.391,89.7,0.113,97.2,inactive
ZNF318 (zinc finger protein 318),3,0.594,93.7,-0.221,111,inactive
AGBL1 (AGBL carboxypeptidase 1),1,-2.11,39.9,-1.04,58.5,inactive
AGBL1 (AGBL carboxypeptidase 1),2,-1.36,54.7,-1.15,82.9,inactive
AGBL1 (AGBL carboxypeptidase 1),3,-1.93,43.4,-2.05,83.1,inactive
C4orf46 (chromosome 4 open reading frame 46),1,0.0745,83.4,0.352,84.9,inactive
C4orf46 (chromosome 4 open reading frame 46),2,0.428,90.4,-0.324,110,inactive
C4orf46 (chromosome 4 open reading frame 46),3,0.347,88.8,0.283,92.1,inactive
LBP (lipopolysaccharide binding protein),1,-0.402,73.9,-0.49,93.9,inactive
LBP (lipopolysaccharide binding protein),2,1.15,105,0.995,90.1,inactive
LBP (lipopolysaccharide binding protein),3,1.07,103,0.633,97.6,inactive

An excerpt from above, limited to “luciferase per cell, z-score”.
FKBP9P1 (FKBP prolyl isomerase 9 pseudogene 1) #2	1.17
FKBP9P1 (FKBP prolyl isomerase 9 pseudogene 1) #3	3.4
C1QL2 (complement C1q like 2) #1	1.15
C1QL2 (complement C1q like 2) #2	-3.98
C1QL2 (complement C1q like 2) #3	-0.407
SSX3 (SSX family member 3) #1	1.77
SSX3 (SSX family member 3) #2	-0.791
SSX3 (SSX family member 3) #3	-1.15
